These are yes or no findings as the source states them, for the method shown. Binding can be weak; no strength is given. For some assays here: In cells and extracts the contact can be indirect.
How the values were obtained:
recombinant VEGFR-2 = recombinant VEGFR-2 (UniProt P35968); experiment: pull-down; cell-free; recombinant VEGFR-2 first incubated with protein G beads, then recombinant EMMPRIN (or VEGF) added; bound proteins analysed by Western blotting; both purified
[1] = target: pVEGFR-2 (human (endogenous in HMEC, M10, BLM and human tumor tissues)) (UniProt P35968); experiment: proximity ligation; in situ PLA on cryosections of frozen tumor tissues fixed with 4% paraformaldehyde (human breast cancer and melanoma tissues; BLM-scrambled-miRNA and BLM-EMMPRIN-miRNA xenografts from nude mice)
[2] = target: pVEGFR-2 (human (endogenous in HMEC, M10, BLM and human tumor tissues)) (UniProt P35968); experiment: proximity ligation; in situ PLA (Duolink) on fixed cultured cells (HMEC, M10, MDA-MB-231; BLM-EMMPRIN-miRNA cells transfected with EMMPRIN constructs), primary antibodies to EMMPRIN, VEGFR-2, VEGF or pVEGFR-2 (Tyr 1175); confocal microscopy; with or without VEGF 50 ng/ml 5 min, EMMPRIN siRNA or scrambled siRNA
[3] = target: VEGF (human (endogenous in HMEC, M10, MDA-MB-231, BLM)) (UniProt P15692); experiment: as above
[4] = target: VEGF (human (endogenous in HMEC, M10, MDA-MB-231, BLM)) (UniProt P15692); experiment: co-IP; lysates of HMEC, M10 (and MDA-MB-231) cells in TBS with 0.5% Nonidet P-40; IP with anti-VEGFR-2 or anti-VEGF and Protein G-sepharose, blot with anti-EMMPRIN; also after EMMPRIN siRNA or scrambled siRNA

By UniProt entry, the sequences of proteins in these tests, tags left out. Where a name states a change or a piece, a line headed by the entry shows the natural chain unless it says otherwise. Residues count along the entry.
UniProt P35968, residues 20-1356: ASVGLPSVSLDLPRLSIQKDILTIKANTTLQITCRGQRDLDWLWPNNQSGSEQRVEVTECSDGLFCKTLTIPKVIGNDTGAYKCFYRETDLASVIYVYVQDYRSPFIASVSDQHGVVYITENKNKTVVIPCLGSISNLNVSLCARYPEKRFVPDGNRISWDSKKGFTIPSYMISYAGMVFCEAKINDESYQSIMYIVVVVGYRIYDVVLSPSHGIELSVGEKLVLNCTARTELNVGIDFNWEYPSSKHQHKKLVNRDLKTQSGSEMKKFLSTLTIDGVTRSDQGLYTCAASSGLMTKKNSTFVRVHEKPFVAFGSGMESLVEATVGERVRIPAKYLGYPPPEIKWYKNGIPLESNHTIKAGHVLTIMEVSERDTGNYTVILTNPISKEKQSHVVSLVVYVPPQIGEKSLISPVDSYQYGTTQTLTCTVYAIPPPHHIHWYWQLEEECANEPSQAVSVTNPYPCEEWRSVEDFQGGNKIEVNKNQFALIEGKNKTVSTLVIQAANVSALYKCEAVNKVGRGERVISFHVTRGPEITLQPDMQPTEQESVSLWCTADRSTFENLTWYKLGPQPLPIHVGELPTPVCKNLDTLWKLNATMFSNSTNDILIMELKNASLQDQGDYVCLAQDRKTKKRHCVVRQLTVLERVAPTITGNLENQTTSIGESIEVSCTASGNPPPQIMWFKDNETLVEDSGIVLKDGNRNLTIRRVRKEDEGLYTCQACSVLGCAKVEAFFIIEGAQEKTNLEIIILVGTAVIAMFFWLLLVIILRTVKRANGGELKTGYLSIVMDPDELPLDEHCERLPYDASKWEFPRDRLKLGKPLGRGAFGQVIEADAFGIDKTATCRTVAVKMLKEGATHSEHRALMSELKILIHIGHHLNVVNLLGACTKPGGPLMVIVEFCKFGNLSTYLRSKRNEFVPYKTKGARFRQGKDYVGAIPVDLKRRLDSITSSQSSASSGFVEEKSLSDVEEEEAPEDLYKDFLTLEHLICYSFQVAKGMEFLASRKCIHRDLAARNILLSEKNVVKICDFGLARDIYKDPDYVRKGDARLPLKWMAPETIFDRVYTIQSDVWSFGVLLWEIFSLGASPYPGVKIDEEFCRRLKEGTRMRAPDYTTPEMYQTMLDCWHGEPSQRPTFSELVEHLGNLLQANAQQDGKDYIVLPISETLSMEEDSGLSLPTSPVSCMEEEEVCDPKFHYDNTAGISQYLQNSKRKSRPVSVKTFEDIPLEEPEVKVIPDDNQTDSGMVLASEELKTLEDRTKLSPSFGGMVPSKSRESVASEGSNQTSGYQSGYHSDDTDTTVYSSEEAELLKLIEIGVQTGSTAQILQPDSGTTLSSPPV
UniProt P15692: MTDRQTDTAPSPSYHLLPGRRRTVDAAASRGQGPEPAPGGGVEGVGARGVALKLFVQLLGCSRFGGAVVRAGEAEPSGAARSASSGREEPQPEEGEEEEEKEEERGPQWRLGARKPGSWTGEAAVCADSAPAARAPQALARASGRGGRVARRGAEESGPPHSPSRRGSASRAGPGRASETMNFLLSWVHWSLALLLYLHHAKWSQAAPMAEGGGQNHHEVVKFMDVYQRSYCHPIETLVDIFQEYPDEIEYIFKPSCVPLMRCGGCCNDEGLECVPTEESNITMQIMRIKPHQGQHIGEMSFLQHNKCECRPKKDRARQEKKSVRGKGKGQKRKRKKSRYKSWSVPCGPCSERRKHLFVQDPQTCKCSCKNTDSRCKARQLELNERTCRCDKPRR

“recombinant EMMPRIN (from UniProt P35613-2)” was tested, and the binding (recombinant VEGFR-2) was “binds”.

For EMMPRIN/CD147 (from UniProt P35613-2), the binding [1] was “binds”, the binding [2] was “binds” and the binding [3] was “binds”. For the same substance, the binding [4] was “binds”.

— paper PMC4496396
